Results published in PubChem BioAssay AID2685 (National Center for Advancing Translational Sciences (NCATS), 2010).
The whole screen tested about 320,000 compounds, of which about 2,100 (0.66%) were called active. This list was built around the results that the source calls inconclusive (neither active nor inactive); the mix of calls is not that of the screen. Calls follow the shape of the dose curve; as a rule, active = well fitted inhibition curve with a large enough effect in the signal ratio, with a control signal flat (not every such curve was filed as active); inconclusive = small, poorly fitted or top-dose-only effect, or effect the other way, or a change in a side signal; inactive = flat fitted curve, though single readings scatter; the % refers to the signal ratio. Potencies of inconclusive entries are doubtful fits and often do not repeat.
% is scaled to controls: 0 for no effect and ±100 for the full control effect; potency is read from the fitted curve at half-maximal effect.

Assay: qHTS Assay for Lipid Storage Modulators in Drosophila S3 Cells
Conditions: BODIPY lipid droplet fluorescence, 18-24 h, cells fed with added oleic acid; lipid storage change, negative = inhibition: at 46.1 µM (top of the series) unless noted
Outline: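 Drosophila S3 cells got compounds at several concentrations plus oleic acid (400 uM solution). Laser-scanning cytometry with 488 nm excitation read lipid droplets at 500-530 nm and cells at 575-640 nm. Percent activity was relative to 20 uM Triacsin C.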
With `Cc1cn2nc(N)c3ccccc3c2n1` the lipid storage change, negative = inhibition was inconclusive: 37.2%.
In the case of `O=C(Nc1ccc(-c2ccco2)cc1)C1CCCN(Cc2ccc(CO)o2)C1` (stereo not drawn), the Potency is reported as inconclusive: 0.13 µM [falling, full curve, poor fit].
In the case of `Cc1csc(SCC(=O)NCc2ccc3c(c2)OCO3)n1`, the lipid storage change, negative = inhibition is reported as inconclusive: -11.4%.
With `COC(=O)CSc1nnc(COc2cccc3ccccc23)o1` the lipid storage change, negative = inhibition was inconclusive: 59.1%.
For `CCOC(=O)C1CCN(C(=O)c2ccccc2CCc2ccccc2)CC1`, the Potency was inconclusive: 29.1 µM [falling, single point].
For `COc1ccc(C(C)=O)cc1COC(=O)CSCC(=O)Nc1ccc(C)cc1`, the lipid storage change, negative = inhibition was inconclusive: 5.83%.
For `CCn1c2ccccc2c2cc(NC(=O)c3cccc(OC)c3OC)ccc21`, the lipid storage change, negative = inhibition was inconclusive: -27.5%.
With `COc1cc(OC)cc(C(=O)Nc2ccc(S(=O)(=O)Nc3cc(C)on3)cc2)c1` the lipid storage change, negative = inhibition was inconclusive: -5.38%.
For `O=C(Cc1ccccc1)Nc1cccnc1`, the Potency was inconclusive: 0.146 µM [activator, full curve].
With `C#CCn1c(=NC(=O)c2ccc(S(=O)(=O)N3CCCc4ccccc43)cc2)sc2cc(S(N)(=O)=O)ccc21` the Potency was inconclusive: 16.4 µM [activator, single point].
With `COc1cc(C2NC(=O)NC(C)=C2C(=O)OC2CCCCC2)cc(Br)c1O` (stereo not drawn) the lipid storage change, negative = inhibition was inconclusive: 13.7%.
In the case of `CCOc1ccc(C(=O)NCc2ccccc2)cc1Br`, the lipid storage change, negative = inhibition is reported as inconclusive: 97.2%.
For `Cc1cccc(OCC(O)Cn2c(NCCCOC(C)C)nc3c2c(=O)[nH]c(=O)n3C)c1` (stereo not drawn), the Potency was inconclusive: 4.61 µM [activator, full curve, poor fit].
With `CC(C)(C)[C@@H]1CCC(=O)N(CC[C@H](N=[N+]=[N-])c2ccccc2)CC1` the Potency was inconclusive: 29.1 µM [falling, single point].
For `Nc1nc(Cl)c(C=O)c(N2CCCCC2)n1`, the Potency was inconclusive: 0.092 µM [falling, full curve, poor fit].
In the case of `C/C(=N\NC(=O)c1cccs1)C(C)(C)C`, the Potency is reported as inconclusive: 29.1 µM [activator, single point].
With `COc1cccc(-c2nnc(SCC(=O)OC(C)C)n2N)c1` the lipid storage change, negative = inhibition was inconclusive: -5.46%.
For `CCc1nn(C(C)C(=O)NC(C)CCc2ccco2)c(=O)c2cc3occc3n12` (stereo not drawn), the lipid storage change, negative = inhibition was inconclusive: 17.9%.
For `O=C(C1CCCCC1)N1CCCc2ccccc21`, the lipid storage change, negative = inhibition was inconclusive: -106%.
In the case of `CCN(CC)c1ccc(/C=C(/C#N)C(=O)NCc2ccccc2)o1`, the Potency is reported as active: 2.06 µM.
For `COc1ccc(C)cc1NC(=O)c1ccc(CN2CCc3ccccc3C2)cc1`, the Potency was inconclusive: 29.1 µM [activator, single point].
For `CCCNC(=O)COC(=O)c1ccc(Cl)c(S(=O)(=O)N2CCCC2)c1`, the lipid storage change, negative = inhibition was inconclusive: -8.22%.
In the case of `O=C1C(Cc2ccccc2)SC(=Nc2ccccc2)N1c1ccccc1` (stereo not drawn), the lipid storage change, negative = inhibition is reported as inconclusive: 49.7%.
For `O=C(CCCSc1nc2ccccc2[nH]1)Nc1nnc(-c2ccccc2)o1`, the Potency was inconclusive: 0.326 µM [falling, full curve, poor fit].
For `CCN1CCN(CC(=O)N2N=C(c3cccs3)CC2c2ccc(OC)c(OC)c2)C(=O)C1=O` (stereo not drawn), the lipid storage change, negative = inhibition was inconclusive: 7.21%.
In the case of `Cc1ccccc1-n1nnnc1-c1ccccc1`, the Potency is reported as inconclusive: 0.092 µM [activator, full curve].
With `Cc1cccc(NC(=O)CNC(=O)c2cn(Cc3ccccc3)nc2-c2cccnc2)c1C` the Potency was inconclusive: 16.4 µM [activator, partial curve].
For `O=C(c1ccc(Oc2ccc(C(F)(F)F)cn2)cc1)N1CCN(c2ccccc2)CC1`, the lipid storage change, negative = inhibition was inconclusive: 1.67%.
In the case of `O=C(c1ccccc1OCc1ccc(Cl)cc1)N1CCN(c2ccccn2)CC1`, the lipid storage change, negative = inhibition is reported as “inconclusive”.
For `CCOC(=O)c1ccccc1NC(=O)COC(=O)C1CC(=O)N(CCc2ccccc2)C1` (stereo not drawn), the lipid storage change, negative = inhibition was “inconclusive”.
For `O=C(OCc1nnc(-c2ccc([N+](=O)[O-])cc2)o1)c1ccc(F)c(S(=O)(=O)N2CCOCC2)c1`, the lipid storage change, negative = inhibition was “inconclusive”.
For `COCCCNC(=S)N1CCCN(c2nc3cc(C)c(C)cc3cc2C#N)CC1`, the Potency was inconclusive: 32.6 µM [falling, single point].
In the case of `O=C(COc1ccccc1Cl)N1CCNC1=O`, the lipid storage change, negative = inhibition is reported as “inconclusive”.
With `Cc1c(C(=O)Nc2ccc(Cc3ccncc3)cc2)cccc1[N+](=O)[O-]` the lipid storage change, negative = inhibition was inconclusive: 12.3%.
For `COC(=O)CNC(=O)C(NC(=O)c1ccc(Cl)cc1)C(C)C` (stereo not drawn), the Potency was active: 25.9 µM.
With `O=C(Nc1ccc(Oc2ccc(Cl)cc2)c(Cl)c1)c1cc(I)cc(I)c1O` the lipid storage change, negative = inhibition was inconclusive: -1.62%.
In the case of `COc1cccc(CNC(=O)N[C@@H](CC(C)C)C(=O)O)c1`, the Potency is reported as inconclusive: 10.3 µM [falling, partial curve].
With `Cc1cc(N2C(=O)C(O)=C(C(=O)c3ccco3)C2c2cccc(O)c2)no1` (stereo not drawn) the lipid storage change, negative = inhibition was inconclusive: 54%.
With `COc1ccc(NC(=O)Cc2cccc3ccccc23)cc1` the Potency was inconclusive: 25.9 µM [activator, single point].
For `CN1CCN(c2nc(-c3ccc(Br)cc3)nnc2-c2ccccc2)CC1`, the lipid storage change, negative = inhibition was inconclusive: -35.6%.
In the case of `COc1cccc(OCc2cc(/C=N/Nc3ccc(C(=O)O)cc3)ccc2OC)c1`, the Potency is reported as inconclusive: 0.651 µM [falling, single point].
For `COC(=O)C1=C(C)N(C)C(=O)NC1c1ccc(C)cc1` (stereo not drawn), the “lipid storage change, negative = inhibition” value was inactive: 3.69%.
In the case of `CNC(=O)/C(C#N)=C/c1c(F)cccc1Cl`, the Potency is reported as active: 10.3 µM.
With `O=C1CC(N2CCCCCC2)C(=O)N1c1ccc2c(c1)OCO2` (stereo not drawn) the lipid storage change, negative = inhibition was inconclusive: 52.7%.
With `COc1ccc(S(=O)Cc2ccc(C(=O)NCc3cccc(OC)c3)o2)cc1` (stereo not drawn) the lipid storage change, negative = inhibition was inconclusive: -33.1%.
With `COc1cc2c(cc1OC)C1Cc3ccc(OC)c(OC)c3C[N+]1([O-])CC2` (stereo not drawn) the “lipid storage change, negative = inhibition” value was inactive: 0.646%.
For `COc1ccc(CNC(=O)CCCn2nc(C)n3c(cc4sccc43)c2=O)cc1`, the Potency was inconclusive: 29.1 µM [falling, partial curve, poor fit].
In the case of `Cc1cc(F)c(F)c(C(=O)N2CCC(C)CC2)c1Cl`, the “lipid storage change, negative = inhibition” value is reported as inactive: 10.8%.
For `Cc1cccn2c(=O)c(C=C(C#N)C#N)c(N3CCN(c4cccc(Cl)c4)CC3)nc12`, the Potency was inconclusive: 0.13 µM [falling, full curve, poor fit].
With `O=C(NC(=S)NCc1ccccc1)c1cccnc1` the lipid storage change, negative = inhibition was inconclusive: 13.5%.
With `CSCCC(NS(=O)(=O)c1ccccc1F)C(=O)OCc1ccccc1Cl` (stereo not drawn) the Potency was inconclusive: 29.1 µM [activator, single point].
In the case of `CCOC(=O)c1cnc2ccc(Br)cc2c1NCCO`, the lipid storage change, negative = inhibition is reported as inconclusive: 11.9%.
With `CCOC(=O)c1ccc[n+](CC(=O)c2ccccc2)c1` the lipid storage change, negative = inhibition was inconclusive: -14.1%.
For `COC(=O)C1(C)NC(c2ccc(O)cc2)C2C(=O)N(c3ccccc3)C(=O)C21` (stereo not drawn), the Potency was inconclusive: 18.4 µM [activator, single point].
In the case of `O=C(CSc1nnc(C2CC2)n1Cc1ccccc1)N1CCN(S(=O)(=O)c2ccccc2)CC1`, the lipid storage change, negative = inhibition is reported as inconclusive: 14.4%.
With `CC1Cc2ccccc2N1C(=O)CSc1nn2c(=O)c(C(C)(C)C)nnc2s1` (stereo not drawn) the lipid storage change, negative = inhibition was inconclusive: -0.676%.
In the case of `Cc1ccc(-n2cc[nH]c2=S)c(C)c1`, the lipid storage change, negative = inhibition is reported as inconclusive: -44.7%.
In the case of `CC1CCCN(C(=O)CCCn2c(=S)[nH]c3ccccc3c2=O)C1` (stereo not drawn), the Potency is reported as inconclusive: 14.6 µM [cytotoxic, partial curve].
In the case of `COc1ccc(CCN(C)CC(=O)Nc2cc(C)nc3ccccc23)cc1OC`, the lipid storage change, negative = inhibition is reported as inconclusive: -1.7%.
In the case of `Cc1oc(C(C)(C)C)cc1C(=O)Nc1ccc(C(=O)O)cc1`, the lipid storage change, negative = inhibition is reported as inconclusive: 74.1%.
In the case of `O=Cc1c(N2CCN(c3ccccc3)CC2)nc2ccccn2c1=O`, the “lipid storage change, negative = inhibition” value is reported as inactive: 4.25%.
With `Cc1ccc2cc3cc(C(=O)N4CCCCC4C)oc3nc2c1` (stereo not drawn) the lipid storage change, negative = inhibition was inconclusive: -30.1%.
With `OCCN1CCN(C(=S)NC2CCCC2)CC1` the lipid storage change, negative = inhibition was inconclusive: 48.3%.
With `Cc1cc(C)n2nc(S(=O)(=O)NCCc3ccccc3)nc2n1` the lipid storage change, negative = inhibition was inconclusive: -54.6%.
In the case of `CC(C)CNS(=O)(=O)c1ccccc1C(=O)N1CCCCC1`, the lipid storage change, negative = inhibition is reported as inconclusive: 85.5%.
For `O=C(CN(Cc1ccccc1)C(=O)c1cccc([N+](=O)[O-])c1)Nc1c(Cl)cc(Cl)cc1Cl`, the lipid storage change, negative = inhibition was inconclusive: 15.9%.
With `O=c1[nH]c(C2CCN(S(=O)(=O)c3ccc(C(F)(F)F)cc3)CC2)nc2c1nnn2Cc1cccc(F)c1` the Potency was inconclusive: 0.13 µM [falling, full curve].
For `Cc1ccc(OCC(O)Cn2c(N)nc3c2c(=O)n(C)c(=O)n3C)cc1` (stereo not drawn), the lipid storage change, negative = inhibition was inconclusive: -16.1%.
In the case of `O=C(N/N=C\c1cccnc1)c1ccc(Cl)s1`, the lipid storage change, negative = inhibition is reported as inconclusive: 0.289%.
With `COCCNC(=O)CSc1nc2ccccc2c(=O)n1CCC(=O)NCCc1ccc(OC)c(OC)c1` the “lipid storage change, negative = inhibition” value was inactive: -6.85%.
In the case of `CN(C)NC(=O)c1ccsc1NC(=O)c1ccc(S(=O)(=O)N2CCCC2)cc1`, the lipid storage change, negative = inhibition is reported as inconclusive: -48.3%.
With `O=C(NC(CO)c1ccccc1)c1ccco1` (stereo not drawn) the Potency was inconclusive: 29.1 µM [falling, single point].
In the case of `CC1(C)CC2CC(C)(CN2S(=O)(=O)c2ccc(N)cc2)C1` (stereo not drawn), the lipid storage change, negative = inhibition is reported as inconclusive: 160%.
In the case of `COc1ccc(N(Cc2cc3ccccc3[nH]c2=O)C(=O)C2CCCO2)cc1` (stereo not drawn), the lipid storage change, negative = inhibition is reported as inconclusive: 5.67%.
In the case of `CC(C)n1c(SCC(=O)Nc2ccc3c(c2)OCO3)nc2c1c(=O)n(C)c(=O)n2C`, the Potency is reported as inconclusive: 0.651 µM [activator, full curve].
For `CCCCNC(=O)CNC(=O)c1nn(-c2ccc(OC)cc2)c(=O)c2ccccc12`, the lipid storage change, negative = inhibition was inconclusive: -16.6%.
In the case of `Cc1cccc2cc(CN(Cc3cccs3)Cc3nnnn3Cc3ccccc3)c(=O)[nH]c12`, the lipid storage change, negative = inhibition is reported as inconclusive: -6.87%.
For `Cc1cccc(C(=O)NC(=S)Nc2ccc(Cc3ccncc3)cc2)c1`, the lipid storage change, negative = inhibition was inconclusive: -120%.
